Screen size: about 310,000 compounds; about 17,000 (5.5%) were called active. The inconclusive results got no clear call from the source; some entries with a clear call stand among them for comparison. The call rests on the fitted dose curve; in most records, active means well fitted inhibition curve with a large enough effect; inconclusive means small, poorly fitted or top-dose-only effect, or effect the other way; inactive means no such curve, though single readings can be large or run the other way. Potencies beside an inconclusive call are fits to weak or partial responses and may not hold up.
Target: Nuclear receptor ROR-gamma (Mus musculus) (UniProt P51450)
Assay: qHTS for inhibitors of ROR gamma transcriptional activity; further: nearly all actives have a fitted effect of over 60% in size
Settings: Drosophila S2 Gal4-RORgamma UAS-luciferase reporter, 20 h; activity change, negative = inhibition: at 53.6 µM (top of the series)
In short: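 Stably transfected Drosophila Schneider cells are the test system, with ROR gamma fused to Gal4 and luciferase under UAS control; luminescence is read after 20 hr of 700 uM copper sulfate induction at ambient temperature.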
On the % scale 0 is the no-effect control and ±100 the full control effect; potency means the concentration at half of the fitted maximal effect.

Amino acid sequences for entries named in this document (tags omitted). A change or cut given only in a name is not applied to a line headed by its entry.
UniProt P51450: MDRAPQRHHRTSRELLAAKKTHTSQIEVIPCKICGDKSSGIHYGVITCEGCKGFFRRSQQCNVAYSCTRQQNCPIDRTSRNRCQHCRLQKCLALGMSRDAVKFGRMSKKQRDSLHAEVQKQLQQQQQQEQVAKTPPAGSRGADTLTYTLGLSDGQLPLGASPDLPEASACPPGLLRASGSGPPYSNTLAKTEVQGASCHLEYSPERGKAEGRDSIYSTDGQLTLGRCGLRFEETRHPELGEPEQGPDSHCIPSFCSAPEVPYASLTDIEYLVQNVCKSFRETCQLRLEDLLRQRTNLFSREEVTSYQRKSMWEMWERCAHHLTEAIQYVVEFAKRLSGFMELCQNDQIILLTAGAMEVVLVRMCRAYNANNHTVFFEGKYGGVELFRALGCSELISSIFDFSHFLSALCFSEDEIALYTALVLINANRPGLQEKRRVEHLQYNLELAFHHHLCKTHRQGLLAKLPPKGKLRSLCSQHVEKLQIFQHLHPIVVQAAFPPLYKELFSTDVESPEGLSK

Activity change, negative = inhibition, inactive:
Cc1cccc(CCNC(=O)C2CCC(CNS(=O)(=O)c3cccs3)CC2)c1 (centres undefined) 6.51%
Cc1ccc(Sc2ccc(N)cn2)cc1 19.2%
O=C(NCc1ccc(F)cc1)C(Cc1ccccc1)n1cccc1 (centres undefined) 33.1%
O=C(O)C1CCCCC1C(=O)Nc1ccc(S(=O)(=O)N2CCCCC2)cc1 (centres undefined) -12.9%
COC(=O)c1c(NC(=O)CN2C(=O)c3ccccc3C2=O)sc(Cc2ccc3c(c2)OCO3)c1C -0.12%
O=C1CSC(c2cn(-c3ccccc3)nc2-c2cc3ccccc3oc2=O)N1Cc1ccco1 (centres undefined) 7.78%
COc1ccc(Cn2c(CO)cnc2SCC(=O)Nc2cccc(NC(C)=O)c2)cc1 7.14%
COc1ccc([C@]23Cc4cc(OC)c(OC)cc4C(O2)C2=C(CCCC2=O)O3)cc1 6.65% [at 10 µM]
O=[N+]([O-])c1ccc(N2CCN(c3cccc(Cl)c3)CC2)cn1 37.9%
COc1ccc(-c2nc(NC(=O)C3CCN(c4nc5ccccc5o4)CC3)sc2C)cc1 -43.7%
Cc1[nH]nc(N)c1N=Nc1ccc(Br)cc1 -11.2%
CCCS(=O)(=O)N1CCC(C(=O)NCc2ccc3c(c2)OCO3)CC1 -2.81%
COC(=O)c1sc2ncccc2c1OCc1ccc(Cl)cc1 15.1%
CCn1c(SCC(=O)N2CCCCC2)nc(O)cc1=O 30.5%

Potency, active:
COc1cccc(C2=NNC(=NCc3ccccc3)SC2)c1 8.91 µM
COc1cccc(C(=O)N2N=C(c3cccc(OC)c3)CC2(O)C(F)(F)F)c1 (centres undefined) 11.2 µM
Oc1c(CN2CCN(c3ccccn3)CC2)cc(Cl)c2cccnc12 0.447 µM
CCOc1ccc(NC(=O)n2ncc3c(C)cccc32)cc1 0.447 µM
Cc1c(C(=O)NN)[nH]c2ccc([N+](=O)[O-])cc12 11.2 µM
CCOc1ccc(N=Cc2c(C)[nH]n(-c3nc4ccccc4[nH]3)c2=O)cc1 14.1 µM
N/C(=N\c1nc2ccccc2o1)NC(=O)c1ccccc1 7.08 µM
CCOC(=O)c1cnc2ccc(OCC)cc2c1N(C)Cc1ccccc1 14.1 µM
CCN(CC)CC(=O)Nc1sc(C)cc1C(=O)c1ccccc1 7.08 µM
Nc1c(C(=O)c2ccccc2)sc2snc(SCC(=O)c3ccccc3)c12 11.2 µM
Cc1cccc(NC(=S)NC(=O)CCc2ccccc2)c1 10 µM

Quoted at random: 3 compounds from above
Potency, active:
CCOc1ccc(NC(=O)n2ncc3c(C)cccc32)cc1 0.447 µM
CCOC(=O)c1cnc2ccc(OCC)cc2c1N(C)Cc1ccccc1 14.1 µM
CCOc1ccc(N=Cc2c(C)[nH]n(-c3nc4ccccc4[nH]3)c2=O)cc1 14.1 µM

Following part.

Potency, inconclusive:
N=C(N)Cc1ccccc1Sc1ccccc1 22.4 µM [activator, single point]
CN(CC(=O)Nc1cccc(F)c1)C(=O)CCNC(=O)c1ccc(Br)cc1 8.91 µM [activator, partial curve]
Cc1nc(NCc2cccnc2)c2c3c(sc2n1)CCCC3 35.5 µM [activator, single point]
CN(C)S(=O)(=O)c1ccc(C(=O)/C=C/c2cccnc2)cc1 35.5 µM [inhibitor, single point]
Oc1ccccc1OCc1nc2ccccc2s1 2.51 µM [activator, full curve, poor fit]
O=C(Nc1cccc(S(=O)(=O)Nc2ccc(Cl)cc2)c1)c1ccc(Cl)nc1 31.6 µM [inhibitor, single point]
Cc1nc(CS(=O)(=O)c2ccccc2)cc(Sc2ccc(Cl)cc2)n1 6.31 µM [activator, single point]
Cc1ccc(N2C(=O)CC(Sc3ncn[nH]3)C2=O)cc1 (centres undefined) 35.5 µM [inhibitor, single point]
COc1ccc(CCNC(=O)C2CCN(S(=O)(=O)c3ccc(C)cc3)CC2)cc1 0.316 µM [inhibitor, single point]
COCCCNC(=S)NNC(=O)c1ccoc1C 22.4 µM [inhibitor, single point]
CCOC(=O)C1=C(c2ccccc2)N2CCS(=O)(=O)N=C2S1 0.126 µM [activator, partial curve]
S=C(Nc1ccccc1)N1N=CCC1c1ccccc1 (centres undefined) 35.5 µM [inhibitor, single point]
C[C@@H](C(=O)Nc1ccc2ccccc2c1)[C@@H]1C[C@@]1(C)[C@@H](NS(=O)(=O)c1ccc2ccccc2c1)c1ccccc1 5.62 µM [inhibitor, single point]
COc1ccc(NC(=O)Cn2nnc3ccccc32)c([N+](=O)[O-])c1 14.1 µM [activator, single point]
C/C(=C\c1cccc(Br)c1)C(=O)c1c(C)cc(C)[nH]c1=O 35.5 µM [inhibitor, single point]
CCCn1c(-c2ccncc2)n[nH]c1=S 11.2 µM [inhibitor, partial curve]
CCOC(=O)Nc1ccc2c(c1)N(C(=O)CCN(CC)CC)c1ccccc1S2=O (centres undefined) 28.2 µM [inhibitor, single point]
COc1ccc(CN2CCC(n3nccc3NC(=O)C3CC3)CC2)c(OC)c1OC 35.5 µM [inhibitor, single point]
CC1CCCC(NCC(O)COC(c2ccc(F)cc2)c2ccc(F)cc2)C1C (centres undefined) 35.5 µM [inhibitor, single point]
CCOC(=O)COn1c(=O)c(-c2ccc(OC)c(OC)c2)[n+]([O-])c2ccccc21 3.55 µM [activator, partial curve]
CCOC(=O)N1CCC(Nc2ncnc3c2cnn3-c2ccc(C)cc2C)CC1 17.8 µM [activator, single point]
COC(=O)C(O)(CC(=O)Nc1ccccc1OC)C(F)(F)F (centres undefined) 31.6 µM [activator, single point]
Cc1ccc(Cn2ncc(Cl)c(Cl)c2=O)cc1 35.5 µM [inhibitor, single point]
COc1ccc(N(C(=O)c2snc(C(N)=O)c2N)C(C(=O)NCc2ccc(F)cc2)c2ccc(O)cc2)cc1 (centres undefined) 10 µM [activator, partial curve]

Reference: PubChem BioAssay AID2551 (National Center for Advancing Translational Sciences (NCATS), 2010)
